In the RNAGym collection of RNA variant scans (doi:10.1126/science.aae0568) one finds yeast fitness data, which are given here for 167 variants.

Sequences and labels used below:
B1: tRNA (parent)
chain: GUUCCGUUGGCGUAAUGGUAACGCGUCUCCCUCCUAAGGAGAAGACUGCGGGUUCGAGUCCCGUACGGAACG

Variants at the background level are over-represented here. Bounds are passed on as bounds.

This series covers variants of B1. In words: yeast fitness relative to wild type (ratio to wild type); higher = fitter; tRNA-Arg(CCU), competitive growth, 37 C, YPD. Put shortly: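 Variants of the tRNA-Arg(CCU) gene, chemically synthesised with a 3% per-site mutation rate at 69 sites, were placed at the native genomic locus in Saccharomyces cerevisiae. The pooled strains were competed in YPD at 37°C for 24 hours in six parallel replicates. Gene amplicons from the start population and from each end population were read by 100-nucleotide paired-end sequencing. Darwinian fitness relative to wild type came from changes in genotype frequencies; genotypes needed ≥ 100 starting reads, and estimates < 0.5 were set to 0.5.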
For U3C U35A G48C C61U, the yeast fitness is not above 0.5. In the case of U8C A42C A65G C66G, the yeast fitness is not above 0.5.

As to C5A A21U G51A, the yeast fitness is not above 0.5. Regarding U2A G9C G12A A42C C46A A65U, the yeast fitness was not above 0.5.

For the variant A42U G52C, the yeast fitness was 0.694. Consider G38A G50C A57G, for which the yeast fitness was not above 0.5. Take U8G U32C C66U: the yeast fitness is not above 0.5. Consider U8A C55U G68A, for which the yeast fitness was 0.578. With C22U A40G A43U C46G C49G C62U the figure was 0.531; with U19A C31A C49U, not above 0.5. With U26C C29A C66U A69U, the yeast fitness is not above 0.5.

Consider C4A G12A C31U U59A G63A, for which the yeast fitness is not above 0.5.

In the case of U26C C62G G63A, the yeast fitness was not above 0.5. C5U C31G C55G U64C: the yeast fitness was not above 0.5. As for U3G C4G U13C A20U C34U C62G A69U, the yeast fitness is not above 0.5. Turning to U19G C22G U32G A57C C62U, the yeast fitness was not above 0.5. On to A37C C46U U53C, for which the yeast fitness was not above 0.5. For the variant G10C C31A A40U C46U, the yeast fitness is not above 0.5.

C22A U28C G58C: the yeast fitness is not above 0.5.

As for U7G G12A G25A, the yeast fitness was not above 0.5. In the case of C29U C31G C34G A37C C55U, the yeast fitness is not above 0.5.

Regarding C24U A36U C49G, the yeast fitness turned out to be 0.544.

Regarding C4U G12A A42U U47A C61A, the yeast fitness was not above 0.5. C29U G63C: the yeast fitness came to 0.728. In the case of C4U U64G C66A, the yeast fitness was not above 0.5. The figure for A21G U54G C55U is not above 0.5. As for C4A C55G C60U G68C, the yeast fitness is not above 0.5.

For the variant C4G A14C C61U, the yeast fitness was not above 0.5.

With U28A U35A, the yeast fitness was determined as 0.584.

As for C30A C31A G38A C49U G52A, the yeast fitness was not above 0.5.

C30U U59A A69C: the yeast fitness is not above 0.5. On to C11G C27U G51C C62G, for which the yeast fitness was not above 0.5. On to C5G C11A A15G G18A C30G A69C, for which the yeast fitness is not above 0.5.

Turning to G9A A14C C22G U54C A57G, the yeast fitness was not above 0.5. Turning to A14U G52C C55G, the yeast fitness was not above 0.5. On to C11U C22G C34A, for which the yeast fitness is not above 0.5. C4A C11G A14U A42U: the yeast fitness is not above 0.5. With C22U C31G G67C, the yeast fitness was 0.653. With C5U C27U C55U A65C A69G, the yeast fitness was not above 0.5. The figure for U2G U13G U16C G63A is not above 0.5; for U32C U47A it is 0.9. The figure for C27G U28A C30G C31U C62G is not above 0.5; for C31G G48A U54C it is not above 0.5; for C31G C34G A43U it is not above 0.5. With C5A G10U C30U A43C A69C the figure was not above 0.5; with C4G U19A A21G C62A, not above 0.5. Turning to G10C U47G G68U, the yeast fitness is not above 0.5. The figure for C11G U16C C22U C60G G68U is not above 0.5. On to C5U C22G C29G C62U, for which the yeast fitness is not above 0.5. The figure for U2G C5G C34G C49G is 0.505.

As to A37C G39C C55U C61A, the yeast fitness turned out to be 0.532. In the case of U28A C29U A37C U64C, the yeast fitness is not above 0.5.

With A14C C24U A40U G44A, the yeast fitness was not above 0.5.

On to U35C C55G A70C, for which the yeast fitness is not above 0.5.

With C27A C30G G41C, the yeast fitness was not above 0.5. With C5U C55U C62G C66A the figure was not above 0.5; with C5A U19A C30G C49G, not above 0.5. As for C29A U35A C55A C66U, the yeast fitness is not above 0.5. As for C11G G23C A37G G48C G52C C55U, the yeast fitness is not above 0.5. With G18A A21G G39A C49A the figure was not above 0.5. The figure for C11U C29U C61U U64C is not above 0.5. U3C C5U U7G C22U C27G A70C: the yeast fitness was not above 0.5. With U3C G9C C11U C30G A43C U47A the figure was not above 0.5; with G6A C27G A36G A43G, not above 0.5; with U2C C30U A37C G38C A65C, not above 0.5.

Turning to C5G G9C A43G G67U, the yeast fitness is not above 0.5.

In the case of A21G U59C, the yeast fitness came to 0.883. C22A U26A G52C G67A: the yeast fitness was not above 0.5. As to C4A U35C G44C A57C, the yeast fitness was not above 0.5. With C34U C49A G52A U59A the figure was not above 0.5. With C5A U16C A21C C33U A40G A43U U54G C62G, the yeast fitness was not above 0.5.

For the variant U3A G6C A37U C55G U59C C60U G67U, the yeast fitness was not above 0.5. For the variant A15C C24U, the yeast fitness turned out to be 0.601. As for C22A G23C C49G, the yeast fitness is not above 0.5. With U16C U28G C60U U64C the figure was not above 0.5; with C5U C11G C29A C46A, not above 0.5; with A14U A15G C61U, not above 0.5. Take C11U C24U G41A C62A: the yeast fitness was not above 0.5. The figure for G10A A21G C22A C31A A69C is not above 0.5; for A14G C34G A65U A70G it is not above 0.5; for A43U C46A A69C it is 0.734. As to C4G A21G C34U G44C C55G C61A G68U, the yeast fitness is not above 0.5. Regarding U7G C11G C34U G41A C66U, the yeast fitness is not above 0.5. For U19C A36G G44A A70U, the yeast fitness was not above 0.5. The figure for C4A G23A C29U C34G G38C U54A A57C is 0.602; for U8G A20U A45U U47A U59C A69C it is not above 0.5.

As to G10A C11U C29A C34A G44A, the yeast fitness is not above 0.5. For the variant A15C C30U A70C, the yeast fitness is not above 0.5.

As to U32G U35A A36G C66U, the yeast fitness is not above 0.5. In the case of U2A A15G A37U C60A, the yeast fitness was not above 0.5. With U13G U32A C33A the figure was not above 0.5; with A45U C66A, 0.649; with G10C U54A A69U, not above 0.5.

Take G9C C11U A20C C31U A65C: the yeast fitness is not above 0.5. The figure for U7A U16C A69G is not above 0.5. With C11U A20U G39A A57U, the yeast fitness was not above 0.5. In the case of G23C A45U A65C, the yeast fitness was not above 0.5.

For the variant A15G G51A C62U, the yeast fitness was not above 0.5. Turning to C11U C55A G58C G67C, the yeast fitness was not above 0.5.

For the variant G6A A21U G48C, the yeast fitness is not above 0.5.

A37C A43C A45C: the yeast fitness was not above 0.5. Consider C11U A20G G23C C31U C46G A70U, for which the yeast fitness is not above 0.5. In the case of G10C A70G, the yeast fitness came out at 0.644. Take C5G C22G U54C: the yeast fitness is not above 0.5. With G6A C24G C34G G48C the figure was not above 0.5. For G17A G48A U54C A69C, the yeast fitness is not above 0.5. A14U A43U U64A A69C: the yeast fitness was not above 0.5. Turning to C11A G39A G52C C55G, the yeast fitness was not above 0.5. In the case of U8C C27U C34G, the yeast fitness is not above 0.5. Regarding C4G U8C C27U C49U, the yeast fitness is not above 0.5. Regarding U7C A37C C60G A65U A70U, the yeast fitness was not above 0.5. The figure for G17A C30G A69C is not above 0.5; for C49G U53C C55A C61U U64G it is not above 0.5; for G18C U26A A45G C62A it is not above 0.5.

Turning to C11A U19C A37G U53G, the yeast fitness is not above 0.5. Turning to C4A C34G A70G, the yeast fitness is not above 0.5. For U2C A42C, the yeast fitness amounted to 0.914. Consider A14C C30G G68C, for which the yeast fitness was not above 0.5. Turning to C5U C29U A57G U59C, the yeast fitness is not above 0.5. The figure for A21C C22A U26C U35C C55G C62G is not above 0.5; for A15C G38A A57G it is not above 0.5. The figure for G9C U47G G52A C61A G67C is not above 0.5; for C5G A21G G51A it is 0.617; for U47C U64G G68C it is not above 0.5.

For the variant U16A C22G C61G C66U A69U, the yeast fitness is not above 0.5.

Turning to A40C C55U A65C, the yeast fitness is not above 0.5. Regarding C24A U35G C55U, the yeast fitness is not above 0.5. As for A45U C46U C49U G50C C61U, the yeast fitness was not above 0.5. For U3A G10A G25C C60A, the yeast fitness is not above 0.5.

Consider C22A G25A C27U G67U A69C, for which the yeast fitness is not above 0.5. For the variant C4U A36U C62U, the yeast fitness was not above 0.5. Consider C5U A14G A65G, for which the yeast fitness is 0.69. With G51A A69C, the yeast fitness amounted to 0.979. Regarding U19C C22U G25C C27G A40C, the yeast fitness turned out to be 0.587. The figure for A21G G68C is 0.949. For C24U A57G C61U C62G A65G C66A, the yeast fitness was not above 0.5. Turning to A15G U26A, the yeast fitness worked out at 1.04. Turning to G9C G23A A40C, the yeast fitness was not above 0.5. In the case of U8A G9A C24G, the yeast fitness is not above 0.5. U8G C24G C31U: the yeast fitness is not above 0.5. As to C22U C24U G38C, the yeast fitness was not above 0.5. G10A U28C A42U: the yeast fitness is not above 0.5. The figure for G41A A45C A65U A69C is not above 0.5; for C5G C30A C31A C49U C55G it is 0.544. As for A21U A43G U47A C49A, the yeast fitness was not above 0.5. For G10A C33A, the yeast fitness is not above 0.5. The figure for G10C G18A C22U is 0.633; for U26G G39C A45G C55A A69U it is not above 0.5. Take U28G C31U G67C: the yeast fitness is not above 0.5.

G41A G44A U53A C66U: the yeast fitness was not above 0.5.

As to U3A A14G C46G G50C, the yeast fitness was not above 0.5. C11U A15C A21G C24G U28A C61U: the yeast fitness is not above 0.5.

For G17C C30U A36G, the yeast fitness was not above 0.5. With C11G C33G A37U A45U the figure was 0.64. For A20G C31G C60U C62U, the yeast fitness is not above 0.5. Consider G6A C11A A40G, for which the yeast fitness was not above 0.5. With G17A C24G C33U A37U the figure was not above 0.5; with U2C G50C C60G, not above 0.5; with A15C A36C G38C G52A A70U, not above 0.5. As to U3C A21U G51C, the yeast fitness was not above 0.5. For G9U U16C C55G G67A, the yeast fitness is not above 0.5. Consider U8A U28C A43U, for which the yeast fitness is not above 0.5.

On to U3C G18A C46U G50U G67A, for which the yeast fitness is not above 0.5. On to A15C U19A C24G C34G C46U C61A, for which the yeast fitness was not above 0.5. U16G G51A C61G: the yeast fitness is not above 0.5.

G10A C34G A43G G68C: the yeast fitness was not above 0.5.

Turning to U7C A21G G41C U53C U64A, the yeast fitness was not above 0.5.
